No constants are given. Whether binding was seen depends on the method and setting. For some assays here: In cells and extracts the contact can be indirect. Some results given as binding are weak or reduced against the parent protein; the word gives no strength. For some assays here: Tags and fused reporters may be left off the sequences shown.
Tests used:
[1] = molecular target: T1, mRuby2-Flag-GGGS-NECAP1, wild type (human) (UniProt Q8NC96); assay: co-IP; immunoprecipitation of NECAP1-mRuby2 from cells; details not shown
T1 sequence: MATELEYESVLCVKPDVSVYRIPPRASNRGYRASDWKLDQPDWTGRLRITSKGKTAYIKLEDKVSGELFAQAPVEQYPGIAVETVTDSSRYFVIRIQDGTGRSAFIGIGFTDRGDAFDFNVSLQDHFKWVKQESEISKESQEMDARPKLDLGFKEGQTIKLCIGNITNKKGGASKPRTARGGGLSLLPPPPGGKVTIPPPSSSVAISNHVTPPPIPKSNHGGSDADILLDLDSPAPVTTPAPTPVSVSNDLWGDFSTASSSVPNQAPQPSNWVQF

Amino acid sequences for entries named in this document (tags omitted).
UniProt Q9Y5X1: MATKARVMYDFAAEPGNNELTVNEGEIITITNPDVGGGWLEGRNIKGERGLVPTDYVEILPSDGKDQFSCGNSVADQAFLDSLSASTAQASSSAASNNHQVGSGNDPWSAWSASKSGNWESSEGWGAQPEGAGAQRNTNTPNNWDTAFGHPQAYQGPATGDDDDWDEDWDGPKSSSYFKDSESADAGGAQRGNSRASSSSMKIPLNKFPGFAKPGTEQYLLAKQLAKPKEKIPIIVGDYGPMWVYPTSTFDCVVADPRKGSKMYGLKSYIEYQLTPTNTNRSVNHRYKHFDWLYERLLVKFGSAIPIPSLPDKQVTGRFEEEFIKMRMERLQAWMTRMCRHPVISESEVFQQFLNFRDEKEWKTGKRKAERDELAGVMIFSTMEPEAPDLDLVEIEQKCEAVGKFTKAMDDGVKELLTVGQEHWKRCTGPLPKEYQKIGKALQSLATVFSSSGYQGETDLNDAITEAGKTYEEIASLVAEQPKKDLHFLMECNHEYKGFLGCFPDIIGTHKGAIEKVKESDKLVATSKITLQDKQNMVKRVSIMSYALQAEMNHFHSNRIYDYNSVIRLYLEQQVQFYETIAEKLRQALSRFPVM

[2] = molecular target: T2, NECAP1 PHear domain (NECAP 1-133), wild type (UniProt Q8NC96); assay: ITC; Nano ITC, 12°C, 75 mM HEPES pH 7.4, 0.25 mM TCEP; PHear domains in the cell, peptides at 1-5 mM titrated in; both purified
T2 sequence: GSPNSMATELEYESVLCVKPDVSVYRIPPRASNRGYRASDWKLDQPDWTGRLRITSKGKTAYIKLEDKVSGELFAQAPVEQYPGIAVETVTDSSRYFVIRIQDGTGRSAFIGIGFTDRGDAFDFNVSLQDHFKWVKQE

## SNX9, endogenous in human non-neuronal cells (from UniProt Q9Y5X1 1-595)
[1]
  binding: binds

## FLDSL [SNX9 FxDxΦ peptide FLDSL]
[2]
  binding: binds weakly

— paper PMC6706699 (Developmental Cell, 2019)
